From publication PMC9028714 (Journal of Personalized Medicine, 2022)
Where two headings read alike, the source gives them in different places.

What was measured:
[1] = test system: P-gp
[2] = test system: P-gp; experiment: clinical; settings: human, capillary whole blood (dried blood spots), po, 25 mg, probe fexofenadine, AUCfexofenadine (AUC0–6h), mean ± SD, fexofenadine 25 mg orally

inter-individual variability (CV) of AUCfexofenadine ([1]; apixaban cohort): 67.2%
inter-individual variability (CV) of AUCfexofenadine ([1]; rivaroxaban cohort): 71.5%
AUC(0-t) ([2]; apixaban cohort): 265 ± 178 ng·h/mL
AUC(0-t) ([2]; rivaroxaban cohort): 238 ± 170 ng·h/mL
SMILES: CC(C)(C(=O)O)c1ccc(C(O)CCCN2CCC(C(O)(c3ccccc3)c3ccccc3)CC2)cc1 (stereo not shown) [fexofenadine]
